“Also recorded” adds a separate entry of the source. For at least one compound, name, drawing or mass did not settle the structure.
Experiments:
[1] = tested on: TCTR1 antisense plants; test: Inducible leaf abscission in TCTR1 antisense tomato plants
[2] = tested on: EIN3 over-expressing transgenic tomato plants; test: Inducible leaf abscission in EIN3 over-expressing transgenic tomato after chemical inducer treatment; details: glucocorticoid-inducible promoter; dexamethasone solution applied to leaves

SMILES: C[C@@H]1C[C@H]2[C@@H]3CCC4=CC(=O)C=C[C@]4(C)[C@@]3(F)[C@@H](O)C[C@]2(C)[C@@]1(O)C(=O)CO [dexamethasone]
- rate of leaf abscission compared with EIN3 over-expressing plants ([1]; CTR1/TCTR1 antisense plants): less rapid; also recorded: not as rapid
- induction of leaf abscission ([1]; TCTR1 antisense under the three inducible promoters): induced leaf abscission
- leaf epinasty of the transgenic plants [2]: severe leaf epinasty

From patent publication US20050060772A1, “Regulation of ethylene sensitivity during leaf and flower abscission” (priority 2001, published 2005)
